PubChem BioAssay AID1224830 – NIAID | 2016
The whole screen tested about 18,000 reagents; shown is a random part of them. About 2,900 of them (16%) were called active. 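Calls are made per well; low scores hint the gene aids the LPS response, high scores that it dampens it.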 Unmarked entries are inactive. Repeated entries: four replicate wells of each siRNA pool. Reagent sequences are not shown.

Purpose: 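Regulators of TLR4 signalling towards TNF-alpha in macrophage-like cells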 (primary screen)
Cells: human THP-1 monocytic leukaemia cells, TNF dual-luciferase reporter clone, PMA-differentiated to macrophage-like cells
Reagents: siRNA pool against human genes, 50 nM
Duration: LPS for 4 h, given about 3 days after siRNA transfection
Treatment: bacterial LPS (TLR4 ligand), 10 ng/ml
Measured: 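Ratio of firefly to renilla light, scaled to the plate median and expressed as a robust z-score per replicate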
Reading the numbers: TNF reporter robust z-score: higher = stronger TNF reporter response to LPS
Rule for the call: 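a well is active when its z-score exceeds 2.8 or falls below -1.5; control wells carry no call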

gene symbol	PubChem SID	TNF reporter robust z-score
TEFM	SID315459424	-1.22
TEFM	SID315459424	-0.2
TEFM	SID315459424	0
TEFM	SID315459424	-0.22
PDSS2	SID315458264	0.63
PDSS2	SID315458264	0.06
PDSS2	SID315458264	-0.33
PDSS2	SID315458264	0.26
TMCC1	SID315454934	0.11
TMCC1	SID315454934	-0.42
TMCC1	SID315454934	0.2
TMCC1	SID315454934	0.82
SH2B1	SID315455585	3.2 (active)
SH2B1	SID315455585	3.71 (active)
SH2B1	SID315455585	0.32
SH2B1	SID315455585	0.33
TBX18	SID315453039	-0.79
TBX18	SID315453039	0.59
TBX18	SID315453039	0.37
TBX18	SID315453039	-0.75
RSAD1	SID315457588	1.71
RSAD1	SID315457588	2.78
RSAD1	SID315457588	0.98
RSAD1	SID315457588	1.87
LEMD1	SID315461068	0.39
LEMD1	SID315461068	1.81
LEMD1	SID315461068	1.5
LEMD1	SID315461068	-0.03
ALDH18A1	SID315450996	-1.29
ALDH18A1	SID315450996	-0.34
ALDH18A1	SID315450996	0.01
ALDH18A1	SID315450996	-0.04
C9orf78	SID315456883	-1.4
C9orf78	SID315456883	-0.63
C9orf78	SID315456883	0.47
C9orf78	SID315456883	0.56
MPP2	SID315450029	-0.71
MPP2	SID315450029	0.5
MPP2	SID315450029	0.75
MPP2	SID315450029	0.97
ATP8B3	SID315462370	-1.1
ATP8B3	SID315462370	-1.09
ATP8B3	SID315462370	-1.37
ATP8B3	SID315462370	-1.24
NDUFA9	SID315450173	-0.04
NDUFA9	SID315450173	2.73
NDUFA9	SID315450173	1.68
NDUFA9	SID315450173	1.82
SLC39A1	SID315455961	-1.04
SLC39A1	SID315455961	0.31
SLC39A1	SID315455961	-0.33
SLC39A1	SID315455961	-0.66
WSCD2	SID315453469	0.34
WSCD2	SID315453469	0.33
WSCD2	SID315453469	0.99
WSCD2	SID315453469	0.19
PRPSAP2	SID315450853	0.34
PRPSAP2	SID315450853	0.67
PRPSAP2	SID315450853	0.49
PRPSAP2	SID315450853	1.17
LOC653978 (retired record)	SID315465160	1.13
LOC653978 (retired record)	SID315465160	-0.04
LOC653978 (retired record)	SID315465160	1.84
LOC653978 (retired record)	SID315465160	1.42
LPAR6	SID315453869	-1.19
LPAR6	SID315453869	-0.18
LPAR6	SID315453869	-1.05
LPAR6	SID315453869	-0.71
SRSF12	SID315461991	1.89
SRSF12	SID315461991	1.23
SRSF12	SID315461991	2.22
SRSF12	SID315461991	2.2
GABRA1	SID315448796	-0.74
GABRA1	SID315448796	0.39
GABRA1	SID315448796	-1.05
GABRA1	SID315448796	-0.45

10 neighbouring reagents from above:
gene symbol	PubChem SID	TNF reporter robust z-score
WSCD2	SID315453469	0.99
WSCD2	SID315453469	0.19
PRPSAP2	SID315450853	0.34
PRPSAP2	SID315450853	0.67
PRPSAP2	SID315450853	0.49
PRPSAP2	SID315450853	1.17
LOC653978 (retired record)	SID315465160	1.13
LOC653978 (retired record)	SID315465160	-0.04
LOC653978 (retired record)	SID315465160	1.84
LOC653978 (retired record)	SID315465160	1.42
